Measured values: paper doi:10.1101/2025.09.04.673968

Sequences of proteins named here, by UniProt entry; tags and fusion partners are left off.
UniProt Q12532: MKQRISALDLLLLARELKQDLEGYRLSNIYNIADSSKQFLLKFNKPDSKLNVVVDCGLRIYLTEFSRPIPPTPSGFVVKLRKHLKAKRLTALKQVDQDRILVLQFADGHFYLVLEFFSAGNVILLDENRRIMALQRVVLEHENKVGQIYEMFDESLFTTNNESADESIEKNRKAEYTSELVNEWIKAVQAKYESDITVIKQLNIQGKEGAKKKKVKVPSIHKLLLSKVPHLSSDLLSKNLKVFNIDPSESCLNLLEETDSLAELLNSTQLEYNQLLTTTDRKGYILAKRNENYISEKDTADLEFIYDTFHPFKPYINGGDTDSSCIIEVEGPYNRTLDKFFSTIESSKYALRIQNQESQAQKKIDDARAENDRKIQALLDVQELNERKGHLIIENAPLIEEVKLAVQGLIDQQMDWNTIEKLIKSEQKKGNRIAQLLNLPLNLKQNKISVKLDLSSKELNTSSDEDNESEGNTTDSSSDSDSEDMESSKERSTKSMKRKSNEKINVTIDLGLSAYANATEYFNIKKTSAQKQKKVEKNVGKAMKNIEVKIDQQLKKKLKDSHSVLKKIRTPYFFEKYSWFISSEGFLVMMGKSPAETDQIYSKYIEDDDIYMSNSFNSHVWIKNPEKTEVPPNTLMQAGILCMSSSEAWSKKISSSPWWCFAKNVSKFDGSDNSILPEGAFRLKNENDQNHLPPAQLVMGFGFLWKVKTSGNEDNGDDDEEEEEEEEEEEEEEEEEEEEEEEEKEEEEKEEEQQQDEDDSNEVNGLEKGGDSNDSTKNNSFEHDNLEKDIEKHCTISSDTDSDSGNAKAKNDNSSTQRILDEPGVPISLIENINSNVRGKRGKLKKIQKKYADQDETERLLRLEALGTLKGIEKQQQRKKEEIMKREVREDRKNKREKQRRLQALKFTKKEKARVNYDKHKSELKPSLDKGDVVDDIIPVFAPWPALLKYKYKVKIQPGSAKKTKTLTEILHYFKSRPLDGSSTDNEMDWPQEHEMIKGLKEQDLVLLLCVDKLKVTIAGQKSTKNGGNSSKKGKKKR
UniProt Q04781: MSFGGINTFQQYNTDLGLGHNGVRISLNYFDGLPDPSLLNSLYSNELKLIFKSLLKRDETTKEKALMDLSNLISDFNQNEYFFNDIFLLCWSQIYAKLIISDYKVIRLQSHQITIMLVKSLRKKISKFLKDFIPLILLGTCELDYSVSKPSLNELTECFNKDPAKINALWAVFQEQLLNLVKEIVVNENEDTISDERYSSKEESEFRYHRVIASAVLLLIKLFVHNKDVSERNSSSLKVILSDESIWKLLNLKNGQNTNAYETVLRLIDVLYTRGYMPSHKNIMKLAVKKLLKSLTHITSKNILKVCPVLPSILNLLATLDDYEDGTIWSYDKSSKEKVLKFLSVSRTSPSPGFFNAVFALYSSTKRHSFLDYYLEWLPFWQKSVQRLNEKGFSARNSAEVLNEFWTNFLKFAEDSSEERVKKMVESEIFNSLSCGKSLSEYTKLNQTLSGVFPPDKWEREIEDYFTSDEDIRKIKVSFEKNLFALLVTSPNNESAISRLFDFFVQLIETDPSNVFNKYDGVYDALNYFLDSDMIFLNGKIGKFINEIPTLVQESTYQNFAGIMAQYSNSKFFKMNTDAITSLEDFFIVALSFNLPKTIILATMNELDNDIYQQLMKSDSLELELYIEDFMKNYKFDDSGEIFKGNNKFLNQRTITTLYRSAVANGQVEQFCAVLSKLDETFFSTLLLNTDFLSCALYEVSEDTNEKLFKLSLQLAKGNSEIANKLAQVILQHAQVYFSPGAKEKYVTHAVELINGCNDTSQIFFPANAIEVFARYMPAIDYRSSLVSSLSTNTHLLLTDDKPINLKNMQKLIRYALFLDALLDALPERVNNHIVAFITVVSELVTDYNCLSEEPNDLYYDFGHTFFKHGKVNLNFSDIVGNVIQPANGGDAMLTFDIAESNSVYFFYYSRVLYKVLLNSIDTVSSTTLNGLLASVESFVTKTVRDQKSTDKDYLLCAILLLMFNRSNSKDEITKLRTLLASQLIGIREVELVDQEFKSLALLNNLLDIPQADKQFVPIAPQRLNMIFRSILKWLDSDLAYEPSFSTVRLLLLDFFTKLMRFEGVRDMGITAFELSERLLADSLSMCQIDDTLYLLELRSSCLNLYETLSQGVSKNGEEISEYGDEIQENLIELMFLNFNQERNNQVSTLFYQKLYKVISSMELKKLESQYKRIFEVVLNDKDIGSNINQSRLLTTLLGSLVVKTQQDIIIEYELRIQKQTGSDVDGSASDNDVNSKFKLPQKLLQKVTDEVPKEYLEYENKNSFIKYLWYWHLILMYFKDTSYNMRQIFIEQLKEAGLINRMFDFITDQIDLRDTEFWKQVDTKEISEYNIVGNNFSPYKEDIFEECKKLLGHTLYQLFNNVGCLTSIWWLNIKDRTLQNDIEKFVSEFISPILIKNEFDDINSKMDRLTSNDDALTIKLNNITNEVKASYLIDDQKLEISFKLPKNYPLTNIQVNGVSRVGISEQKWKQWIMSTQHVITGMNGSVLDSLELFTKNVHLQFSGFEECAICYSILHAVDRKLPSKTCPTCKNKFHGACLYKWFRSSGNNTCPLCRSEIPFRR

T1: Jlp2-FLAG (S. cerevisiae) (UniProt P40206)
T1 sequence: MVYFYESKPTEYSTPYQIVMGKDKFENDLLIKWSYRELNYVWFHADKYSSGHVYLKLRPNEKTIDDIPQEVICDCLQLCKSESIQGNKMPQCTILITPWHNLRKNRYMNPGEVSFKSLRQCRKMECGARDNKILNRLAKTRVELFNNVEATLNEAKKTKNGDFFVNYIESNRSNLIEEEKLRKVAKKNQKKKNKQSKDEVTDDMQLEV

B1: peptidyl-tRNA hydrolase Pth1 (enzyme, UniProt P38876 1-190)
chain: MSGKWRLVLTGIGNPEPQYAGTRHNVGLYMLELLRKRLGLQGRTYSPVPNTGGKVHYIEDEHCTILRSDGQYMNLSGEQVCKVWARYAKYQARHVVIHDELSVACGKVQLRAPSTSIRGHNGLRSLLKCSGGRVPFAKLAIGIGREPGSRSRDPASVSRWVLGALTPQELQTLLTQSEPAAWRALTQYIS
B2: Vms1 (enzyme, UniProt Q04311 1-632)
chain: MNSQKASKMTGSLKKNDLYIFDLSEQLLNSLKLMSFDSTLREVEVEKTSDNDRNKESGDLQIARKKVTSNVMRCSVCQMSFDSRNEQKAHYQTDYHLMNVKRNLRGLDILSVEEFDALISKEHGIKSEDENSGGEQTSSDHEESEEASDRDPDLQTNNYMETIIENDLQKLGFQKDESDAISHINTQSPYIYFKSKYLQKNEVLAIYKSLFNKRSLSNPNEALTFWNSQENPMAISALFMVGGGHFAGAIVSHQRLNVKGNAHKKDETLIEQAVNFLEHKTFHRYTTRRKQGGSQSAMDNAKGKANSAGSALRRYNESALKTDIQGVLKDWEPYLSKCDNIFIRARNVSDKKIFTDNTVLNKGDERIKSFPFTTNRPTVLELKKAWCELSYLKILPKPEPLAVKETVQKLEVSNKKDEFKEKQEPLLEEIQTEEIISLLKKGRAPLLISFLKKNKLDGNFRLKPESKYSLTPTMLHYASQQGMKQMALILLSNIKCDPTIKNRLGRTAWDLNRNDDVRHAFQIARYNLGESFTNWDETHIGQPLSREQVDEINEKKKAIENEKAEKLIKLELEAAKEKQRFAKDAERGPGKKLTNIPSIQQQNLNSLTDEQRRRLMREQRARAAEERMKKKY
B3: Pro1 (protein, UniProt P32264 1-428)
chain: MKDANESKSYTIVIKLGSSSLVDEKTKEPKLAIMSLIVETVVKLRRMGHKVIIVSSGGIAVGLRTMRMNKRPKHLAEVQAIAAIGQGRLIGRWDLLFSQFDQRIAQILLTRNDILDWTQYKNAQNTINELLNMGVIPIVNENDTLSVREIKFGDNDTLSAITSALIHADYLFLLTDVDCLYTDNPRTNPDAMPILVVPDLSKGLPGVNTAGGSGSDVGTGGMETKLVAADLATNAGVHTLIMKSDTPANIGRIVEYMQTLELDDENKVKQAYNGDLTDLQKREFEKLKALNVPLHTKFIANDNKHHLKNREFWILHGLVSKGAVVIDQGAYAALTRKNKAGLLPAGVIDVQGTFHELECVDIKVGKKLPDGTLDPDFPLQTVGKARCNYTSSELTKIKGLHSDQIEEELGYNDSEYVAHRENLAFPPR
B4: Yhr033w (protein, UniProt P38690 1-423)
chain: MTKAYTIVIKLGSSSLVDESTKEPKLSIMTLIVETVTNLKRMGHKVIIVSSGGIAVGLDALNIPHKPKQLSEVQAIAAVGQGRLIARWNMLFSQYGEQTAQILLTRNDILRWNQYNNARNTINELLAMGVIPIVNENDTLSISEIEFGDNDTLSAITAALVGADFLFLLTDVDCLYTDNPRTNPDARPIVLVPELSEGLPGVNTSSGSGSEVGTGGMRTKLIAADLASNAGIETIVMKSDRPEYVPKIVDYIQHHFRPPRHIGNGTQQQFLDLQDTELEQLRRYDVPMHTKFLANDNKHKLKNREFWILHGLITKGAIIIDENSYDKLLSKDMASLTPNAVIEVRDNFHELECVDLKIGQRLPNGELDISKPIQSVGCVRSNYTSLELAKIKGLPSEKIHDVLGYSVSEYVAHRENIAFPPQF
B5: Rqc1 (protein, UniProt Q05468 1-723)
chain: MSSRALRRLQDDNALLESLLSNSNANKMTSGKSTAGNIQKRENIFSMMNNVRDSDNSTDEGQMSEQDEEAAAAGERDTQSNGQPKRITLASKSSRRKKNKKAKRKQKNHTAEAAKDKGSDDDDDDEEFDKIIQQFKKTDILKYGKTKNDDTNEEGFFTASEPEEASSQPWKSFLSLESDPGFTKFPISCLRHSCKFFQNDFKKLDPHTEFKLLFDDISPESLEDIDSMTSTPVSPQQLKQIQRLKRLIRNWGGKDHRLAPNGPGMHPQHLKFTKIRDDWIPTQRGELSMKLLSSDDLLDWQLWERPLDWKDVIQNDVSQWQKFISFYKFEPLNSDLSKKSMMDFYLSVIVHPDHEALINLISSKFPYHVPGLLQVALIFIRQGDRSNTNGLLQRALFVFDRALKANIIFDSLNCQLPYIYFFNRQFYLAIFRYIQSLAQRGVIGTASEWTKVLWSLSPLEDPLGCRYFLDHYFLLNNDYQYIIELSNSPLMNCYKQWNTLGFSLAVVLSFLRINEMSSARNALLKAFKHHPLQLSELFKEKLLGDHALTKDLSIDGHSAENLELKAYMARFPLLWNRNEEVTFLHDEMSSILQDYHRGNVTIDSNDGQDHNNINNLQSPFFIAGIPINLLRFAILSEESSVMAAIPSFIWSDNEVYEFDVLPPMPTSKESIEVVENIKTFINEKDLAVLQAERMQDEDLLNQIRQISLQQYIHENEESNENEG
B6: Pth2 (enzyme, UniProt P34222 1-208)
chain: MEKMTVSSNYTIALWATFTAISFAVGYQLGTSNASSTKKSSATLLRSKEMKEGKLHNDTDEEESESEDESDEDEDIESTSLNDIPGEVRMALVIRQDLGMTKGKIAAQCCHAALSCFRHIATNPARASYNPIMTQRWLNAGQAKITLKCPDKFTMDELYAKAISLGVNAAVIHDAGRTQIAAGSATVLGLGPAPKAVLDQITGDLKLY
B7: Arb1 (protein, UniProt P40024 1-610)
chain: MPPVSASKAKRDAKKAEREAKKAAAGKTIRKLGRKKEAAAEESEVDAAAREIKMMKLQQDKDGLSDRVVTGVLSSLETSRDIKLSSVSLLFHGKVLIQDSGLELNYGRRYGLLGENGCGKSTFLKALATREYPIPEHIDIYLLDEPAEPSELSALDYVVTEAQHELKRIEDLVEKTILEDGPESELLEPLYERMDSLDPDTFESRAAIILIGLGFNKKTILKKTKDMSGGWKMRVALAKALFVKPTLLLLDDPTAHLDLEACVWLEEYLKRFDRTLVLVSHSQDFLNGVCTNMIDMRAQKLTAYGGNYDSYHKTRSELETNQMKQYNKQQEEIQHIKKFIASAGTYANLVKQAKSRQKILDKMEADGLVQPVVPDKVFSFRFPQVERLPPPVLAFDDISFHYESNPSENLYEHLNFGVDMDSRIALVGPNGVGKSTLLKIMTGELTPQSGRVSRHTHVKLGVYSQHSQDQLDLTKSALEFVRDKYSNISQDFQFWRGQLGRYGLTGEGQTVQMATLSEGQRSRVVFALLALEQPNVLLLDEPTNGLDIPTIDSLADAINEFNGGVVVVSHDFRLLDKIAQDIFVVENKTATRWDGSILQYKNKLAKNVVL

Target: T1, Jlp2-FLAG (S. cerevisiae)
Assay: affinity purification with mass spectrometry

binding, binds:
B1
B2
B3
B4

binding, no binding:
Rqc2 (from UniProt Q12532 1-1038)
Ltn1 (from UniProt Q04781 1-1562) (enzyme)
B5
B6
B7

Results are given in words; binding and its absence hold for the method and conditions named. Binding seen in cells or lysates may run through a third protein. These calls come from enrichment with a bait or labelling near it, and not all partners need be listed. No binding means not detected with the bait. Tags and fused reporters may be left off the sequences shown.
